These are yes or no findings as the source states them, for the method shown. In cells and extracts the contact can be indirect. Binding calls can cover weak binding; strength is not graded here. Sequences can lack the tags named with a protein.
Columns and labels:
[1] = target: endogenous LMAN1 (COS-1 cells) (Chlorocebus aethiops (Green monkey) (Cercopithecus aethiops)); experiment: co-immunoprecipitation, COS-1 cells transfected with MCFD2-myc (FIG. 6A)
[2] = target: endogenous LMAN1 (COS-1 cells) (Chlorocebus aethiops (Green monkey) (Cercopithecus aethiops)); experiment: co-immunoprecipitation
[3] = target: endogenous LMAN1 (COS-1 cells) (Chlorocebus aethiops (Green monkey) (Cercopithecus aethiops)); experiment: co-immunoprecipitation with anti-myc and, in reverse, with anti-LMAN1; [35S]-labeled COS-1 extracts (FIG. 6A, lanes 3, 4)
[4] = target: endogenous LMAN1 (COS-1 cells) (Chlorocebus aethiops (Green monkey) (Cercopithecus aethiops)); experiment: co-immunoprecipitation, transfected COS-1 cells (FIG. 6A, lanes 7, 8)

| binding [1] | binding [2] | binding [3] | binding [4] | Binder |
| --- | --- | --- | --- | --- |
| binds | binds | binds | – | wild-type MCFD2-myc (protein, not shown: small tags and cut ends) EEPAASFSQPGSMGLDKNTVHDQEHIMEHLEGVINKPEAEMSPQELQLHYFKMHDYDGNNLLDGLELSTAITHVHKEEGSEQAPLMSEDELINIIDGVLRDDDKNNDGYIDYAEFAKSLQ |
| – | – | – | binds | MCFD2 (I136V)-myc (protein, not shown: small tags and cut ends) EEPAASFSQPGSMGLDKNTVHDQEHIMEHLEGVINKPEAEMSPQELQLHYFKMHDYDGNNLLDGLELSTAITHVHKEEGSEQAPLMSEDELINIIDGVLRDDDKNNDGYVDYAEFAKSLQ |

Reference: patent publication US20040259157A1
